PubChem BioAssay AID504805 – Drosophila RNAi Screening Center – 2011
Only reagents picked out of a larger screen are listed. 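Phenotypes are words from visual inspection of images, not measured scores.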 Reagents against one gene are numbered here. Names joined by + are all predicted targets of the reagent.

Screen: 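Fly genes required for export of polyadenylated mRNA from the nucleus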 (primary screen)
System: Drosophila S2R+ cells
Knock-down reagent: long dsRNA against Drosophila genes, 0.25 µg dsRNA per well
Time to read-out: 4 days
Measurement: 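Microscope images of cells stained for poly(A) RNA with a fluorescent oligo-dT probe and for DNA, assessed visually, with a phenotype description given for each replicate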

| target gene | reagent | phenotype, replicate 1 | phenotype, replicate 2 |
| --- | --- | --- | --- |
| CG43795 | 1 | poly(A) RNA held back in the nucleus | – |
| CG32086 | 1 | poly(A) RNA held back in the nucleus | – |
| Ten-a (Tenascin accessory) | 1 | poly(A) RNA held back in the nucleus | – |
| Ten-a (Tenascin accessory) | 2 | poly(A) RNA held back in the nucleus | – |
| tau | 1 | poly(A) RNA held back in the nucleus | – |
| CG12590 | 1 | poly(A) RNA held back in the nucleus | – |
| IleRS (Isoleucyl-tRNA synthetase) | 1 | poly(A) RNA held back in the nucleus | – |
| CG1523 | 1 | poly(A) RNA held back in the nucleus | – |
| Sap130 (Sin3A-associated protein 130) | 1 | poly(A) RNA held back in the nucleus | – |
| stwl (stonewall) | 1 | poly(A) RNA held back in the nucleus | – |
| CG7031 | 1 | poly(A) RNA held back in the nucleus | – |
| bru2 (bruno 2) | 1 | poly(A) RNA held back in the nucleus | – |
| SLO2 (slowpoke 2) | 1 | poly(A) RNA held back in the nucleus | – |
| Cnx99A + Cnx14D | 1 | poly(A) RNA held back in the nucleus | – |
| Nagk (N-acetylglucosamine kinase) | 1 | poly(A) RNA held back in the nucleus | – |
| CG9119 | 1 | poly(A) RNA held back in the nucleus | – |
| RpL9 (Ribosomal protein L9) | 1 | poly(A) RNA held back in the nucleus | – |
| Gpdh3 (Glycerol-3-phosphate dehydrogenase 3) | 1 | poly(A) RNA held back in the nucleus | – |
| Proc (Proctolin) | 1 | poly(A) RNA held back in the nucleus | – |
| CG13561 | 1 | poly(A) RNA held back in the nucleus | – |
| alphaTub84B (alpha-Tubulin at 84B) | 1 | poly(A) RNA held back in the nucleus | – |
| CG5810 | 1 | poly(A) RNA held back in the nucleus | – |
| RpS18 (Ribosomal protein S18) | 1 | poly(A) RNA held back in the nucleus | – |
| CG30334 | 1 | poly(A) RNA held back in the nucleus | – |
| CG17192 | 1 | poly(A) RNA held back in the nucleus | – |
| CG18599 | 1 | poly(A) RNA held back in the nucleus | – |
| Srp54 (Splicing regulatory protein 54) | 1 | poly(A) RNA held back in the nucleus | – |
| eIF4G2 (eukaryotic translation initiation factor 4G2) | 1 | poly(A) RNA held back in the nucleus | – |
| poe (purity of essence) | 1 | poly(A) RNA held back in the nucleus | – |
| Tbcc (Tubulin-binding cofactor C) | 1 | poly(A) RNA held back in the nucleus | – |
| jim | 1 | poly(A) RNA held back in the nucleus | – |
| RunxA (Runt related A) | 1 | poly(A) RNA held back in the nucleus | – |
| Snrk (SNF related kinase) | 1 | poly(A) RNA held back in the nucleus | – |
| tsr (twinstar) | 1 | poly(A) RNA held back in the nucleus | – |
| CG12912 | 1 | poly(A) RNA held back in the nucleus | – |

Reformatted: results already given
CG1523
- phenotype, replicate 1: poly(A) RNA held back in the nucleus

Sap130 (Sin3A-associated protein 130)
- phenotype, replicate 1: poly(A) RNA held back in the nucleus

stwl (stonewall)
- phenotype, replicate 1: poly(A) RNA held back in the nucleus

CG7031
- phenotype, replicate 1: poly(A) RNA held back in the nucleus

bru2 (bruno 2)
- phenotype, replicate 1: poly(A) RNA held back in the nucleus

SLO2 (slowpoke 2)
- phenotype, replicate 1: poly(A) RNA held back in the nucleus

Cnx99A + Cnx14D
- phenotype, replicate 1: poly(A) RNA held back in the nucleus

Nagk (N-acetylglucosamine kinase)
- phenotype, replicate 1: poly(A) RNA held back in the nucleus

CG9119
- phenotype, replicate 1: poly(A) RNA held back in the nucleus

RpL9 (Ribosomal protein L9)
- phenotype, replicate 1: poly(A) RNA held back in the nucleus

Additional reagents:
| target gene | reagent | phenotype, replicate 1 | phenotype, replicate 2 |
| --- | --- | --- | --- |
| anchor | 1 | poly(A) RNA held back in the nucleus | – |
| CG5404 | 1 | poly(A) RNA held back in the nucleus | – |
| RpLP0 (Ribosomal protein LP0) | 1 | poly(A) RNA held back in the nucleus | poly(A) RNA held back in the nucleus |
| CG7333 | 1 | poly(A) RNA held back in the nucleus | – |
| l(2)05714 (lethal (2) 05714) | 1 | poly(A) RNA held back in the nucleus | – |
| CG42534 | 1 | poly(A) RNA held back in the nucleus | – |
| CG42534 | 2 | poly(A) RNA held back in the nucleus | – |
| dnt (doughnut on 2) | 1 | poly(A) RNA held back in the nucleus | – |
| CG4849 | 1 | poly(A) RNA held back in the nucleus | – |
| CG18536 | 1 | RNA gathered at the nuclear rim | – |
| CG42750 | 1 | poly(A) RNA held back in the nucleus | – |
| CG6661 | 1 | poly(A) RNA held back in the nucleus | – |
| CG4004 | 1 | poly(A) RNA held back in the nucleus | – |
| CG33543 | 1 | poly(A) RNA held back in the nucleus | – |
| Sdr (Secreted decoy of InR) | 1 | poly(A) RNA held back in the nucleus | – |
| exp (expansion) | 1 | poly(A) RNA held back in the nucleus | poly(A) RNA held back in the nucleus |
| RpL13 (Ribosomal protein L13) | 1 | poly(A) RNA held back in the nucleus | – |
| Csk (C-terminal Src kinase) | 1 | poly(A) RNA held back in the nucleus | – |
| Hsp23 (Heat shock protein 23) | 1 | poly(A) RNA held back in the nucleus | – |
| CG31068 | 1 | poly(A) RNA held back in the nucleus | – |
| Shal (Shaker cognate l) | 1 | poly(A) RNA held back in the nucleus | – |
| mam (mastermind) | 1 | clumps in the cytoplasm | poly(A) RNA held back in the nucleus |
| Ppcs (Phosphopantothenoylcysteine synthetase) | 1 | poly(A) RNA held back in the nucleus | – |
| Cap-G (Chromosome associated protein G) | 1 | poly(A) RNA held back in the nucleus | poly(A) RNA held back in the nucleus |
| RnrS (Ribonucleoside diphosphate reductase small subunit) | 1 | poly(A) RNA held back in the nucleus | poly(A) RNA held back in the nucleus |
| CG34231 | 1 | poly(A) RNA held back in the nucleus | – |
| CG10384 | 1 | – | poly(A) RNA held back in the nucleus |
| RpL22 (Ribosomal protein L22) | 1 | poly(A) RNA held back in the nucleus | poly(A) RNA held back in the nucleus |
| stv (starvin) | 1 | poly(A) RNA held back in the nucleus | – |
| E5 | 1 | poly(A) RNA held back in the nucleus | – |
| CG9784 | 1 | poly(A) RNA held back in the nucleus | – |
| uif (uninflatable) | 1 | poly(A) RNA held back in the nucleus | – |
| CG3795 | 1 | poly(A) RNA held back in the nucleus | – |
| CG3587 | 1 | poly(A) RNA held back in the nucleus | – |
| CG44838 | 1 | poly(A) RNA held back in the nucleus | – |
| smog | 1 | poly(A) RNA held back in the nucleus | – |
| RpL7A (Ribosomal protein L7A) | 1 | poly(A) RNA held back in the nucleus | – |
